Reference: publication PMC10348673
Results are given in words; binding and its absence hold for the method and conditions named. Binding seen in cells or lysates may run through a third protein. Some binding calls cover weakened binding; strength is not graded here. For some assays here: Tags and fused reporters may be left off the sequences shown.

The chains behind the UniProt entries cited, without tags or fusion partners. Where a name states a change or a piece, a line headed by the entry shows the natural chain unless it says otherwise.
UniProt Q92963: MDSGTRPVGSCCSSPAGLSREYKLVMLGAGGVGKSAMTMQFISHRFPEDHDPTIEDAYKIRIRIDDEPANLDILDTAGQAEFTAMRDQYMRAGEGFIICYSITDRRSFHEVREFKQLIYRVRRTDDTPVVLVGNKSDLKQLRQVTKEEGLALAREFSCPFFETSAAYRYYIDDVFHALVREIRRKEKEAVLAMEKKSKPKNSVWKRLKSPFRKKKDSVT
UniProt P15056: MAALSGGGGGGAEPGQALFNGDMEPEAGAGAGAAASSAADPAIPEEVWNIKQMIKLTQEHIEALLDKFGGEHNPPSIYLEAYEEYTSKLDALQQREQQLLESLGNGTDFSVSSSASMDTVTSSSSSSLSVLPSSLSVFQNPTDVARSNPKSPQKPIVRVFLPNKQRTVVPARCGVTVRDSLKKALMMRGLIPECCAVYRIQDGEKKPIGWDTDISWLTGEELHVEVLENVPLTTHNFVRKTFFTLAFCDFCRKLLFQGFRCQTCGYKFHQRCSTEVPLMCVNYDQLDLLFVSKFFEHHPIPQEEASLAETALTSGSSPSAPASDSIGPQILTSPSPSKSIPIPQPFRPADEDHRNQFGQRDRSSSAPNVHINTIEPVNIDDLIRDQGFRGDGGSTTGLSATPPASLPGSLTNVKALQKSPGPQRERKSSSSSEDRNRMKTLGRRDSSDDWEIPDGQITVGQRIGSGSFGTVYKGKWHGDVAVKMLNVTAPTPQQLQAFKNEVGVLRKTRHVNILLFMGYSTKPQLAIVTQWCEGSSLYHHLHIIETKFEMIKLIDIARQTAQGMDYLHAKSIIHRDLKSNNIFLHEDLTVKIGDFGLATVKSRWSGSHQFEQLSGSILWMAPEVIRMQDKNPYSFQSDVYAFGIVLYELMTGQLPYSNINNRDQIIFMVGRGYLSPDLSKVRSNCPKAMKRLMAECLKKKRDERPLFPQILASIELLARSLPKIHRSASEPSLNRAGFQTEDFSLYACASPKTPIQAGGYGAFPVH

Experiments:
[1] = target: RIT1 wild type (expressed in HEK293T) (UniProt Q92963); assay: pull-down; GST pull-down from lysates of HEK293T cells co-expressing the constructs; Glutathione Sepharose 4B, 4 hours at 4°C; 50 mM tris-HCl pH 7.5, 150 mM NaCl, 1% IGEPAL CA-630, 10% glycerol
[2] = target: T1, ARAF-nanoLuc (UniProt P10398); assay: FRET or BRET; nanoBRET in intact HEK293T cells; mVenus-RIT1 acceptor titrated (0 to 1000 ng DNA), RAF-nanoLuc donor constant; BRET50 from non-linear fit
T1 sequence: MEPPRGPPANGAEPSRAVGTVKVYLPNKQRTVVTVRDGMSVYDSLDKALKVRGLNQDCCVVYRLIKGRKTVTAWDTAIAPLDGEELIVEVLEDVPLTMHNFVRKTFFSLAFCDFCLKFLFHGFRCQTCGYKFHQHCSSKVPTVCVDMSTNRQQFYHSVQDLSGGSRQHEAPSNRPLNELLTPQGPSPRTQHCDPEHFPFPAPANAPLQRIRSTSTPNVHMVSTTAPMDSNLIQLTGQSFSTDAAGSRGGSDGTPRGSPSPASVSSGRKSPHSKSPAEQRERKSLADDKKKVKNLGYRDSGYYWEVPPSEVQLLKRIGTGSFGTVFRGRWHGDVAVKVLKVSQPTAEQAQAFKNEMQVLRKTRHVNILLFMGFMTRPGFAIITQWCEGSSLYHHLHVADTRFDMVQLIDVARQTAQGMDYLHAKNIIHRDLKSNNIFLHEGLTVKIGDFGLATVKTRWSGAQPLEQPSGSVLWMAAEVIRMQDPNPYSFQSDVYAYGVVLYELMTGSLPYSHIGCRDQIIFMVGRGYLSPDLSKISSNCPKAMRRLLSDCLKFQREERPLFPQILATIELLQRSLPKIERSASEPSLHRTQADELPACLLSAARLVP

[3] = target: BRAF-nanoLuc (UniProt P15056); assay: as above

binding [1] | binding [2] | binding [3] | Substance
binds weakly |  |  | BRAF (expressed in HEK293T) (from UniProt P15056 1-766)
 | binds | binds | mVenus-RIT1 (wild type) (from UniProt Q92963 1-219)
 | binds | binds | mVenus-RIT1 A57G (from UniProt Q92963 1-219)
